## Primary screen of a compound library

Sequences of proteins named here, by UniProt entry; tags and fusion partners are left off.
UniProt E9BF75, entry or part of it: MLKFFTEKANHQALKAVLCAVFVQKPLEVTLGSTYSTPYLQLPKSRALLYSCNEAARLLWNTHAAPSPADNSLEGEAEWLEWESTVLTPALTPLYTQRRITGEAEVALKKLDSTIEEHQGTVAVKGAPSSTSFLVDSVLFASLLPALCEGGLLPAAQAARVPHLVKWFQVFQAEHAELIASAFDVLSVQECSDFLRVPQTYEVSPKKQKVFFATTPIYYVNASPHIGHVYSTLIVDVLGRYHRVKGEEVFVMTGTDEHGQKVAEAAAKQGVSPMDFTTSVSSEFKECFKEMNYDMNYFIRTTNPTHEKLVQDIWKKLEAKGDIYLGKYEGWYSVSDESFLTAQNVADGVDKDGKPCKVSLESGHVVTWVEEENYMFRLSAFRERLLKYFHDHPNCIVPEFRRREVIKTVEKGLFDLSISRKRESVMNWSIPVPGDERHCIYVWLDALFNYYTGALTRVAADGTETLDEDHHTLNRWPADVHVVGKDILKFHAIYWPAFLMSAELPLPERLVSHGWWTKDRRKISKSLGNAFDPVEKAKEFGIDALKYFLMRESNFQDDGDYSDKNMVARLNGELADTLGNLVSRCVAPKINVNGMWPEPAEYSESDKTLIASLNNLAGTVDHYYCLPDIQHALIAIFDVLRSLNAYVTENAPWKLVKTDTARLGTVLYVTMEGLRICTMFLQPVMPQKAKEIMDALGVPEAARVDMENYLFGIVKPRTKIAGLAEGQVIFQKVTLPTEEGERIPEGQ

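Methionyl-tRNA synthetase (putative), Leishmania donovani (UniProt E9BF75). Primary screen of methionyl-tRNA synthetase; the read-out is not stated. The test concentration is not given. Values are per cent inhibition. Of about 68,000 compounds tested this way, about 24 (0.035%) reached 50% or more in at least one test.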

All values are in %.
The controls that fix the scale are not given in the record; negative values are as filed.
This is an unselected part of the compounds tested.

{"structure": "CC(C)CC(=O)N1C[C@@H]2CCN(c3ncccn3)C[C@@H]2C1", "inhibition": -1.684}
{"structure": "OCC1CCCN1c1cc(N2CCC(OC3CCCC3)CC2)ncn1", "stereo": "centres undefined", "inhibition": 13.19}
{"structure": "CCOC(=O)c1cc2c(=O)[nH]c(=O)n(CCc3ccccc3)c2nc1C", "inhibition": 7.829}
{"structure": "Cc1cc(O)cc2c(=O)oc(CC(C)O)cc12", "stereo": "centres undefined", "inhibition": 3.759}
{"structure": "Cn1cc(C#N)cc1C(=O)N1CCC2(CCCN(CC3CCC3)C2=O)C1", "stereo": "centres undefined", "inhibition": 14.18}
{"structure": "CN1CC[C@H]2CN(C(=O)COCc3nc4cc(F)ccc4[nH]3)C[C@H]21", "inhibition": 0.2584}
{"structure": "Cc1c(C(=O)NCC2CCCO2)nnn1-c1cccc2c1CCN(C)C2", "stereo": "centres undefined", "inhibition": 4.93}
{"structure": "Cc1ccc2c(c1)C1(CCNCC1)CC2OCC1CC1", "stereo": "centres undefined", "inhibition": 3.546}
{"structure": "COc1ccc(CN2Cc3[nH]nc(C(=O)N(C)C)c3C2)cc1", "inhibition": 7.283}
{"structure": "O=C(c1cc(C2CC2)[nH]n1)N1CCN(Cc2ccccc2)CC1", "inhibition": 20.56}
{"structure": "O=C(c1ccc(-n2cnnc2)cc1)N1CCCC(n2ccnc2)C1", "stereo": "centres undefined", "inhibition": 13.89}
{"structure": "O=C(NCCc1nccs1)c1n[nH]c2c1CCC2", "inhibition": 17.16}
{"structure": "COCCN1CCC2(CC1)CC(OCC1CC1)c1ccc(C)cc12", "stereo": "centres undefined", "inhibition": 3.546}
{"structure": "CCN(Cc1noc(C)n1)C(=O)CCc1scnc1C", "inhibition": 5.797}
{"structure": "COc1ccc(C2=NOC(C#N)C2)cc1", "stereo": "centres undefined", "inhibition": 3.116}
{"structure": "Cn1cccc1C1CCCN1Cc1noc(C(C)(C)C)n1", "stereo": "centres undefined", "inhibition": 21.05}
{"structure": "Cc1cc(C(=O)N2CCN(S(C)(=O)=O)[C@@H](C)C2)c(F)cc1F", "inhibition": 17.96}
{"structure": "COc1ccc(NC(=O)CSc2nc(C)cc(C)n2)cn1", "inhibition": 12.32}
{"structure": "CN(Cc1cccnc1)[C@@H]1CN(Cc2cnn(C)c2)[C@@H]2CCCO[C@H]12", "inhibition": 12.33}
{"structure": "Cc1nonc1CN(C)Cc1cnn(-c2ccc(Cl)cc2)c1", "inhibition": 13.65}
{"structure": "CNc1nc2c(s1)C(c1ccccc1Cl)CC(=O)N2", "stereo": "centres undefined", "inhibition": 16.43}
{"structure": "CCN(CC)C(=O)c1ccn(COc2ccc(F)cc2)n1", "inhibition": 2.764}
{"structure": "CCOCc1cc(CNC2CCCc3c2cnn3CC)ccc1OC", "stereo": "centres undefined", "inhibition": 12.68}
{"structure": "F[C@@H]1CN(CC2CC2)C[C@@H]1OCc1nc2ncccc2[nH]1", "inhibition": 11.86}
{"structure": "Cc1ccc(-c2ccnc(NC(c3ncccc3C)C3CC3)n2)c(C)n1", "stereo": "centres undefined", "inhibition": 2.839}
{"structure": "O=C(N[C@@H]1c2ccccc2C[C@@H]1O)C1CCN(Cc2ccco2)CC1", "inhibition": 6.46}
{"structure": "Cc1ncc2c(n1)C1(CCN(C(=O)C3CC3)CC1)OCC2", "inhibition": 17.81}
{"structure": "CC(NC(=O)CCc1cccs1)c1nnc2n1CCC2", "stereo": "centres undefined", "inhibition": 10.48}
{"structure": "O=C(NC[C@H]1OC[C@@H](NCc2ccccc2)[C@@H]1O)Nc1ccccc1", "inhibition": 11.19}
{"structure": "Fc1ccc(Nc2ccc(C3CCN(Cc4ncc[nH]4)CC3)nc2)nc1", "inhibition": 19.18}
{"structure": "COc1ccc(C(C(=O)O)N(C)Cc2c(C)nn(C)c2C)c(C)c1", "stereo": "centres undefined", "inhibition": 19.2}
{"structure": "Cc1ccc(-n2ccc3nc(N4CCCC4)ncc3c2=O)cc1C", "inhibition": 5.455}
{"structure": "NC(=O)CN1C(=O)CO[C@H]2CN(Cc3ccc(Cl)cc3)C[C@H]21", "inhibition": 3.759}
{"structure": "COCCN(C)c1ccc(NCc2cscn2)nc1", "inhibition": 13.83}
{"structure": "CN(CC1CCN(CCO)CC1)CC(O)c1ccc(F)cc1", "stereo": "centres undefined", "inhibition": 10.08}
{"structure": "COCC1N(C(=O)Nc2ccccc2)[C@H]2CC[C@]1(O)CC2", "stereo": "some centres undefined", "inhibition": 8.493}
{"structure": "COc1ccc(CC(=O)N2CCN(Cc3ccco3)C[C@@H]2C)cc1OC", "inhibition": 14.33}
{"structure": "CCN(c1cccc(F)c1)S(=O)(=O)c1cc(C(=O)O)cc2c1CCC2", "inhibition": 4.577}
{"structure": "CCNC(=O)CNC(=O)Nc1c(F)cc(F)cc1-c1ccccc1", "inhibition": 15.45}
{"structure": "Cc1cccc(CN2CC[C@@H]3O[C@@H](C(=O)N4CCN(C)CC4)C[C@@H]32)c1", "inhibition": 10.44}
{"structure": "O=C(Cc1c(F)cccc1Cl)NC1CCCCNC1=O", "stereo": "centres undefined", "inhibition": 12.61}
{"structure": "Cc1cc(C(=O)N[C@H](C)c2onc(C)c2C(=O)O)c(C)o1", "inhibition": 3.008}
{"structure": "CCc1sc(-c2nnc(CNCCn3cccn3)o2)cc1C", "inhibition": 9.763}
{"structure": "CC(Cn1cccn1)NC(=O)Nc1nccs1", "stereo": "centres undefined", "inhibition": 17.41}
{"structure": "O=C(O)C1(Cc2ccccc2Cl)CCN(c2ncnc3[nH]ccc23)CC1", "inhibition": 4.732}
{"structure": "CC(=O)c1c(O)ccnc1C(F)(F)F", "inhibition": 14.29}
{"structure": "O=C(c1c(F)cc(Br)cc1F)N1CCc2cnccc21", "inhibition": 16.81}
{"structure": "CCc1nccc(CN2CCC(CNC(=O)c3occc3C)C2)n1", "stereo": "centres undefined", "inhibition": 22.74}
{"structure": "CCN1CCCC1CNC(=O)CCSc1ccc2c(c1)OCCO2", "stereo": "centres undefined", "inhibition": 20.62}
{"structure": "Cc1cnn(C2CCCN(C(=O)CCCn3ccnc3C)C2)c1", "stereo": "centres undefined", "inhibition": 10}
{"structure": "CCOC(=O)N1CCC(N2Cc3ncccc3C2=O)CC1", "inhibition": -2.135}
{"structure": "O=C(C(CNCc1cccnc1)c1ccccc1)N1CCOCC1", "stereo": "centres undefined", "inhibition": 6.267}
{"structure": "O=C(NCC1(Sc2ccccc2)CC1)c1c[nH]nn1", "inhibition": 21.92}
{"structure": "Cc1ccsc1C(=O)NC1CCS(=O)(=O)c2ccccc21", "stereo": "centres undefined", "inhibition": 14.29}
{"structure": "O=C(Nc1ccc(CCN2CCOCC2)cc1)C1CCC1", "inhibition": 14.92}
{"structure": "CC(C)C(C(=O)N1CCCN(Cc2cscn2)CC1)n1cncn1", "stereo": "centres undefined", "inhibition": 4.632}
{"structure": "[O-][S+](CCN1CCc2[nH]nc(C(F)(F)F)c2C1)c1ccccc1", "stereo": "centres undefined", "inhibition": 5.249}
{"structure": "CCC(CO)N(Cc1cccs1)C(=O)Cc1ccncc1", "stereo": "centres undefined", "inhibition": 1.389}

Once more, the final 7:

O=C(C(CNCc1cccnc1)c1ccccc1)N1CCOCC1 (centres undefined) read 6.267%.
O=C(NCC1(Sc2ccccc2)CC1)c1c[nH]nn1 read 21.92%.
Cc1ccsc1C(=O)NC1CCS(=O)(=O)c2ccccc21 (centres undefined) read 14.29%.
O=C(Nc1ccc(CCN2CCOCC2)cc1)C1CCC1 read 14.92%.
CC(C)C(C(=O)N1CCCN(Cc2cscn2)CC1)n1cncn1 (centres undefined) read 4.632%.
[O-][S+](CCN1CCc2[nH]nc(C(F)(F)F)c2C1)c1ccccc1 (centres undefined) read 5.249%.
CCC(CO)N(Cc1cccs1)C(=O)Cc1ccncc1 (centres undefined) read 1.389%.

Data taken from ChEMBL document CHEMBL3988442, “University of Dundee, Small-Polar-MMV Screening Library” (2021).